We go through two molecules from paper PMC12379019.

The chains behind the UniProt entries cited, without tags or fusion partners.
UniProt Q9XTA5: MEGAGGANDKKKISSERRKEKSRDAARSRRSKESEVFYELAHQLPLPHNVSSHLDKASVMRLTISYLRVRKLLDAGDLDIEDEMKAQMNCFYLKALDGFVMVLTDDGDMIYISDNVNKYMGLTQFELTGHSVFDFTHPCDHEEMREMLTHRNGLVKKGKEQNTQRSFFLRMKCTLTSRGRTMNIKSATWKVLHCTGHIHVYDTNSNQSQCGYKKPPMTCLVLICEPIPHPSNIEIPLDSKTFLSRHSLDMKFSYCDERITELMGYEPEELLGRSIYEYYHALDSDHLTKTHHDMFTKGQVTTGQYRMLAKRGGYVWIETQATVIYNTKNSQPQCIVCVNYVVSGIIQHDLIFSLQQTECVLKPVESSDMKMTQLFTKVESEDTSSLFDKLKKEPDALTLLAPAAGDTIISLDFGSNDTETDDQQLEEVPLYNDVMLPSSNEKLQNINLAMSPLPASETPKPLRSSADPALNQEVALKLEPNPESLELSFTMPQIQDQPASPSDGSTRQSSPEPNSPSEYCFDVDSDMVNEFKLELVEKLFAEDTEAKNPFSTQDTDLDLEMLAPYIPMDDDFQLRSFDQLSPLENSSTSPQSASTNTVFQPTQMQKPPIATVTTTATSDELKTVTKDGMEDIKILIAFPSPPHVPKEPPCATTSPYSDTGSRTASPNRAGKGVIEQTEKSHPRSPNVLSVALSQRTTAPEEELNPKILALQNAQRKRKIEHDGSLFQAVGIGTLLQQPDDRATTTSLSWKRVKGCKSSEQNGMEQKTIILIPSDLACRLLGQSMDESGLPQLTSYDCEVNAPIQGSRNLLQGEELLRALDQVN

These are yes or no findings as the source states them, for the method shown. Binding seen in cells or lysates may run through a third protein. Some results given as binding are weak or reduced against the parent protein; the word gives no strength. Tags and fused reporters may be left off the sequences shown.

Test [1] deals with T1, FLAG-tagged bovine LXRα (liver X receptor alpha) (bovine) (UniProt Q5E9B6).
T1 sequence: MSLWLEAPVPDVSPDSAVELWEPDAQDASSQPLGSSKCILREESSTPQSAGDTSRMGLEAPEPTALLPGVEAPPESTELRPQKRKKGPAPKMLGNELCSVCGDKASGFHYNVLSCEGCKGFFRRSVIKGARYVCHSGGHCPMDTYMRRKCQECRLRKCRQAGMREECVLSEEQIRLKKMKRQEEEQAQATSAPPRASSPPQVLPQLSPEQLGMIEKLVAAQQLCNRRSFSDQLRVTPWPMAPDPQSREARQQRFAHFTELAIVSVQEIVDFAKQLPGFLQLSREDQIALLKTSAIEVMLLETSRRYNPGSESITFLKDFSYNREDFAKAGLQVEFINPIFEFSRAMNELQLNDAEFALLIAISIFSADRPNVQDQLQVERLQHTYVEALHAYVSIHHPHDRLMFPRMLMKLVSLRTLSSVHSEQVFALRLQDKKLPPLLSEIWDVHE
Nature of the test: co-IP; HEK293 cells co-transfected with FLAG-LXRα and HA-HIF-1α, 100 μM CoCl2 for 8 h to simulate hypoxia; 500 μg RIPA lysate with anti-FLAG or anti-HA antibody overnight at 4°C, protein A/G magnetic beads; blot with the reciprocal antibody.

Test [2] addresses HA-tagged bovine HIF-1α (bovine) (UniProt Q9XTA5). Described as above.

Take “HA-tagged bovine HIF-1α (from UniProt Q9XTA5 1-823)”: the binding entry in test [1] is reported as “binds”.

B1: FLAG-tagged bovine LXRα (liver X receptor alpha) (protein, UniProt Q5E9B6 1-447)
chain: T1 sequence
Take B1: the binding result in test [2] was “binds”.
